Taken from: PubChem BioAssay AID504804 (Drosophila RNAi Screening Center, 2011)
Screen: 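Fly genes whose loss lessens doxorubicin-driven cell death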 (primary screen). Cell system: Drosophila Kc cells. Reagents: long dsRNA against Drosophila genes, 0.5 µg dsRNA per well. Duration: 96 h (48 h knock-down, then 48 h drug). Conditions: doxorubicin 5 µg/ml for 48 h, added 48 h after dsRNA. Detection: 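Viability measured as cellular ATP by luminescence after 48 h knock-down then 48 h doxorubicin at 5 µg/ml; unnormalised plate counts for each replicate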. Reading the numbers: raw ATP luminescence: higher = more viable cells, protection from doxorubicin. Active means: 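Active when both duplicate wells lie at least 2 SD above the plate mean and protection is confirmed by rescreening and independent dsRNAs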.
The deposit covers about 19,000 reagents; this is an unselected part of those with a known target gene and a result. In the full data, 47 (0.25%) got an active call. 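Signals are raw, not normalised; exact z-scores behind calls not deposited; actives needed confirmation, so some wells reaching 2 SD are inactive.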 Unmarked entries are inactive. Reagents against one gene are numbered here. Reagent sequences are not shown.

For faf (fat facets), the values are raw ATP luminescence, replicate 1 = 62960; raw ATP luminescence, replicate 2 = 59450.
Cnb (Centrobin) gave raw ATP luminescence, replicate 1 = 53947; raw ATP luminescence, replicate 2 = 63933.
For Eaf (ELL-associated factor) #1, the values are raw ATP luminescence, replicate 1 = 52817; raw ATP luminescence, replicate 2 = 46863.
With knock-down of Eaf (ELL-associated factor) #2, the screen gave raw ATP luminescence, replicate 1 = 52243; raw ATP luminescence, replicate 2 = 71420.
With knock-down of Grl40a (Gustatory receptor-like 40a), the record shows raw ATP luminescence, replicate 1 = 1.06e5; raw ATP luminescence, replicate 2 = 75103.
Depletion of CG13041 gave: raw ATP luminescence, replicate 1 = 58157; raw ATP luminescence, replicate 2 = 43250.
CG17597 gave raw ATP luminescence, replicate 1 = 76687; raw ATP luminescence, replicate 2 = 80557.
With knock-down of GlcAT-I (Glucuronyltransferase I), the record shows raw ATP luminescence, replicate 1 = 2.05e5; raw ATP luminescence, replicate 2 = 2.11e5.
CG13458 gave SD above plate mean at least 2 SD above plate mean; raw ATP luminescence, replicate 1 = 46890; raw ATP luminescence, replicate 2 = 44130.

Ordered by “raw ATP luminescence, replicate 2” (highest first): some entries from above
GlcAT-I (Glucuronyltransferase I) | raw ATP luminescence, replicate 1 = 2.05e5; raw ATP luminescence, replicate 2 = 2.11e5
CG17597 | raw ATP luminescence, replicate 1 = 76687; raw ATP luminescence, replicate 2 = 80557

Further reagents follow.
After knock-down of ari-1 (ariadne 1), the record shows raw ATP luminescence, replicate 1 = 3.88e5; raw ATP luminescence, replicate 2 = 3.03e5.
After knock-down of Tie (Tie-like receptor tyrosine kinase) #1 the results were raw ATP luminescence, replicate 1 = 1.27e5; raw ATP luminescence, replicate 2 = 36410.
Against Tie (Tie-like receptor tyrosine kinase) #2, the entry reads raw ATP luminescence, replicate 1 = 80833; raw ATP luminescence, replicate 2 = 81500.
Against Rab32 #1, the entry reads raw ATP luminescence, replicate 1 = 81167; raw ATP luminescence, replicate 2 = 70020.
Rab32 #2 scored raw ATP luminescence, replicate 1 = 77090; raw ATP luminescence, replicate 2 = 72313.
With knock-down of CG12974, the screen gave raw ATP luminescence, replicate 1 = 49600; raw ATP luminescence, replicate 2 = 50937.
For ARY (retired record), the entry reads raw ATP luminescence, replicate 1 = 2.39e5; raw ATP luminescence, replicate 2 = 2.24e5.
Silencing of CG1275 gave: raw ATP luminescence, replicate 1 = 66080; raw ATP luminescence, replicate 2 = 67853.
Depletion of S-Lap2 (Sperm-Leucylaminopeptidase 2) came out at: raw ATP luminescence, replicate 1 = 79763; raw ATP luminescence, replicate 2 = 71783.
Eps-15 (Epidermal growth factor receptor pathway substrate clone 15) gave raw ATP luminescence, replicate 1 = 73057; raw ATP luminescence, replicate 2 = 36673.
